Laboratory results: PubChem BioAssay AID743454 (Peter MacCallum Cancer Centre, 2014)
Purpose: 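Search for knock-downs that restore vorinostat killing in resistant colon cancer cells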 (primary screen). Cells: human HCT116-VR colon cancer cells, selected for vorinostat resistance. Reagent: siRNA pool against human genes, 40 nM siRNA pool. Timing: vorinostat for 24 h, read-out about 72 h after transfection. Conditions: vorinostat at 2.5 µM final. Read-out: 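Two measures, CellTiter-Fluor viability and luminescent caspase 3/7 activity, each as fold change against same-plate mock wells, mean of duplicates, then screen-wide robust z-score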. Scale: viability robust z-score: higher = more viable cells than screen typical; caspase robust z-score: higher = more caspase 3/7 activity than screen typical. Hit rule: 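a knock-down is a hit when classed RV1 or RV2 for lowered viability, or CA1 or CA2 for caspase activation; those lethal without drug were dropped; hits were retested singly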.
In all, the deposit lists about 18,000 reagents; below is a random part of them. In the full data, 450 (2.5%) were called active. 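Single biological run; no consistent viability z cut-off exists, so the class columns, not z-scores, define the calls.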 A number with no mark means an inactive call.

| target | viability hit class | caspase hit class | viability robust z-score | caspase robust z-score |
| --- | --- | --- | --- | --- |
| NFE2L1 (NFE2 like bZIP transcription factor 1) | no change | no change | 0.76 | -1 |
| FANCD2OS (FANCD2 opposite strand) | no change | no change | 2.02 | 0.61 |
| H1-1 (H1.1 linker histone, cluster member) | no change | no change | -0.98 | -0.29 |
| BARX1 (BARX homeobox 1) | no change | no change | -2.12 | 3.5 |
| DFFA (DNA fragmentation factor subunit alpha) | no change | no change | 0.76 | 0.94 |
| TRARG1 (trafficking regulator of GLUT4 (SLC2A4) 1 (gene/pseudogene)) | no change | no change | -0.01 | 0.26 |
| PMPCB (peptidase, mitochondrial processing subunit beta) | no change | no change | 0.46 | -0.84 |
| SQSTM1 (sequestosome 1) | no change | no change | -0.22 | -0.08 |
| PSMC4 (proteasome 26S subunit, ATPase 4) | no change | no change | -5.04 | 0.77 |
| TRIM14 (tripartite motif containing 14) | no change | no change | 1.06 | -0.43 |
| HNRNPA1 (heterogeneous nuclear ribonucleoprotein A1) | no change | no change | -0.59 | -0.86 |
| SEPTIN7 (septin 7) | no change | no change | 1.75 | -0.48 |
| PCDHA3 (protocadherin alpha 3) | no change | no change | 0.67 | -0.56 |
| NPBWR1 (neuropeptides B and W receptor 1) | no change | no change | -1.04 | 3.72 |
| INSYN1 (inhibitory synaptic factor 1) | no change | no change | 0.62 | 1.29 |
| MALL (mal, T cell differentiation protein like) | no change | no change | 1.19 | 1.06 |
| CYP20A1 (cytochrome P450 family 20 subfamily A member 1) | no change | no change | 0.64 | -1.27 |
| NPNT (nephronectin) | no change | no change | 0.57 | 0.1 |
| SDK1 (sidekick cell adhesion molecule 1) | no change | no change | -0.01 | -0.68 |
| GTF3A (general transcription factor IIIA) | no change | no change | -0.15 | 0.84 |
| ARHGAP31 (Rho GTPase activating protein 31) | no change | no change | 1.45 | -0.64 |
| TMEM86B (transmembrane protein 86B) | no change | no change | 0.62 | 0.22 |
| RABGGTB (Rab geranylgeranyltransferase subunit beta) | no change | no change | 1.18 | -0.74 |
